# Measurements reported in the supplement of paper PMC8728848.
# Some of the results follow.
# B1: PEB1 (Campylobacter jejuni), Q0P9X8 (protein)
# chain: MVFRKSLLKLAVFALGACVAFSNANAAEGKLESIKSKGQLIVGVKNDVPHYALLDQATGEIKGFEVDVAKLLAKSILGDDKKIKLVAVNAKTRGPLLDNGSVDAVIATFTITPERKRIYNFSEPYYQDAIGLLVLKEKKYKSLADMKGANIGVAQAATTKKAIGEAAKKIGIDVKFSEFPDYPSIKAALDAKRVDAFSVDKSILLGYVDDKSEILPDSFEPQSYGIVTKKDDPAFAKYVDDFVKEHKNEIDALAKKWGL
# Columns and labels:
# Assay in all cases: glycan array binding signal (z-score within array); higher = stronger binding
# Conditions in all cases: glycan notation: IUPAC condensed, linker removed
# [1] = target: GlcNAc(a1-4)Gal(b1-4)GalNAc
# In short: (§1)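 Glycan array data were curated from 3228 arrays in the Consortium for Functional Glycomics database and kept only where the protein sequence was available. Glycan names were converted to IUPAC-condensed notation, and columns mapping to the same glycan were averaged. The binding signal is a within-array Z-score, averaged across arrays of the same protein sequence at different concentrations or buffers and across linkers. Negative Z-scores can be read as non-binding.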
# [2] = target: GlcNAc(a1-4)Gal(b1-4)GlcNAc
# In short: as §1
# [3] = target: GlcNAc(a1-4)Gal(b1-4)GlcNAc(b1-3)Gal(b1-4)Glc
# In short: as §1
# [4] = target: GlcNAc(a1-4)Gal(b1-4)GlcNAc(b1-3)Gal(b1-4)GlcNAc
# In short: as §1
# [5] = target: GlcNAc(a1-4)Gal(b1-4)GlcNAc(b1-3)Gal(b1-4)GlcNAc(b1-3)Gal(b1-4)GlcNAc
# In short: as §1
# [6] = target: GlcNAc(a1-4)Gal(b1-4)GlcNAc(b1-3)Gal(b1-4)[Fuc(a1-3)]GlcNAc(b1-3)Gal(b1-4)[Fuc(a1-3)]GlcNAc
# In short: as §1
# [7] = target: GlcNAc(a1-6)Gal(b1-4)GlcNAc
# In short: as §1
# [8] = target: GlcNAc(b1-2)Gal(b1-3)GalNAc
# In short: as §1
# [9] = target: GlcNAc(b1-2)Man(a1-3)[GlcNAc(b1-2)Man(a1-6)]Man(b1-4)GlcNAc(b1-4)GlcNAc
# In short: as §1
# [10] = target: GlcNAc(b1-2)Man(a1-3)[GlcNAc(b1-2)Man(a1-6)]Man(b1-4)GlcNAc(b1-4)[Fuc(a1-6)]GlcNAc
# In short: as §1
# [11] = target: GlcNAc(b1-2)[GlcNAc(b1-4)]Man(a1-3)[GlcNAc(b1-2)Man(a1-6)]Man(b1-4)GlcNAc(b1-4)GlcNAc
# In short: as §1
# [12] = target: GlcNAc(b1-3)Gal
# In short: as §1
# [13] = target: GlcNAc(b1-3)Gal(b1-3)GalNAc
# In short: as §1
# [14] = target: GlcNAc(b1-3)Gal(b1-4)Glc
# In short: as §1
# [15] = target: GlcNAc(b1-3)Gal(b1-4)GlcNAc
# In short: as §1
# [16] = target: GlcNAc(b1-3)Gal(b1-4)GlcNAc(b1-3)Gal(b1-4)GlcNAc
# In short: as §1
# [17] = target: GlcNAc(b1-3)GalNAc
# In short: as §1
# [18] = target: GlcNAc(b1-3)Man
# In short: as §1
# [19] = target: GlcNAc(b1-3)[GlcNAc(b1-4)][GlcNAc(b1-6)]GlcNAc
# In short: as §1
# [20] = target: GlcNAc(b1-3)[GlcNAc(b1-6)]Gal(b1-4)GlcNAc
# In short: as §1
# [21] = target: GlcNAc(b1-3)[GlcNAc(b1-6)]GalNAc
# In short: as §1
# [22] = target: GlcNAc(b1-4)Gal(b1-4)GlcNAc
# In short: as §1
# [23] = target: GlcNAc(b1-4)GlcNAc
# In short: as §1
# [24] = target: GlcNAc(b1-4)GlcNAc(b1-4)GlcNAc
# In short: as §1
# [25] = target: GlcNAc(b1-4)GlcNAc(b1-4)GlcNAc(b1-4)GlcNAc(b1-4)GlcNAc
# In short: as §1
# [26] = target: GlcNAc(b1-4)GlcNAc(b1-4)GlcNAc(b1-4)GlcNAc(b1-4)GlcNAc(b1-4)GlcNAc
# In short: as §1
# [27] = target: GlcNAc(b1-4)[GlcNAc(b1-6)]GalNAc
# In short: as §1
# [28] = target: GlcNAc(b1-6)Gal(b1-4)GlcNAc
# In short: as §1
# [29] = target: GlcNAc(b1-6)GalNAc
# In short: as §1
# [30] = target: GlcNAc3Prop(b1-4)GlcNAc
# In short: as §1
# [31] = target: GlcNAc6S(b1-3)Gal(b1-4)GlcNAc
# In short: as §1
# [32] = target: Kdn(a2-3)Gal(b1-3)GalNAc
# In short: as §1
# [33] = target: Kdn(a2-3)Gal(b1-3)GlcNAc
# In short: as §1
# [34] = target: Kdn(a2-3)Gal(b1-4)Glc
# In short: as §1
# [35] = target: Kdn(a2-3)Gal(b1-4)GlcNAc
# In short: as §1
binder,measurement,setting,value
B1,glycan array binding signal (z-score),[1],0.242
same,glycan array binding signal (z-score),[2],0.303
same,glycan array binding signal (z-score),[3],0.59
same,glycan array binding signal (z-score),[4],-0.834
same,glycan array binding signal (z-score),[5],-1.47
same,glycan array binding signal (z-score),[6],0.887
same,glycan array binding signal (z-score),[7],-0.577
same,glycan array binding signal (z-score),[8],-0.665
same,glycan array binding signal (z-score),[9],-0.776
same,glycan array binding signal (z-score),[10],0.009
same,glycan array binding signal (z-score),[11],0.096
same,glycan array binding signal (z-score),[12],0.087
same,glycan array binding signal (z-score),[13],1.53
same,glycan array binding signal (z-score),[14],-1.36
same,glycan array binding signal (z-score),[15],-0.193
same,glycan array binding signal (z-score),[16],-0.747
same,glycan array binding signal (z-score),[17],-1.2
same,glycan array binding signal (z-score),[18],0.653
same,glycan array binding signal (z-score),[19],1.61
same,glycan array binding signal (z-score),[20],-1.2
same,glycan array binding signal (z-score),[21],-0.73
same,glycan array binding signal (z-score),[22],0.196
same,glycan array binding signal (z-score),[23],-0.495
same,glycan array binding signal (z-score),[24],-0.001
same,glycan array binding signal (z-score),[25],-1.28
same,glycan array binding signal (z-score),[26],-0.169
same,glycan array binding signal (z-score),[27],-0.069
same,glycan array binding signal (z-score),[28],-0.212
same,glycan array binding signal (z-score),[29],-0.444
same,glycan array binding signal (z-score),[30],-0.681
same,glycan array binding signal (z-score),[31],0.542
same,glycan array binding signal (z-score),[32],-0.677
same,glycan array binding signal (z-score),[33],-0.889
same,glycan array binding signal (z-score),[34],-0.038
same,glycan array binding signal (z-score),[35],0.348
